From US20060270837A1 (published 2006)
These are yes or no findings as the source states them, for the method shown. Some entries that bind do so weakly or less than the wild type.

The chains behind the UniProt entries cited, without tags or fusion partners. Where a name states a change or a piece, a line headed by the entry shows the natural chain unless it says otherwise.
UniProt O00220: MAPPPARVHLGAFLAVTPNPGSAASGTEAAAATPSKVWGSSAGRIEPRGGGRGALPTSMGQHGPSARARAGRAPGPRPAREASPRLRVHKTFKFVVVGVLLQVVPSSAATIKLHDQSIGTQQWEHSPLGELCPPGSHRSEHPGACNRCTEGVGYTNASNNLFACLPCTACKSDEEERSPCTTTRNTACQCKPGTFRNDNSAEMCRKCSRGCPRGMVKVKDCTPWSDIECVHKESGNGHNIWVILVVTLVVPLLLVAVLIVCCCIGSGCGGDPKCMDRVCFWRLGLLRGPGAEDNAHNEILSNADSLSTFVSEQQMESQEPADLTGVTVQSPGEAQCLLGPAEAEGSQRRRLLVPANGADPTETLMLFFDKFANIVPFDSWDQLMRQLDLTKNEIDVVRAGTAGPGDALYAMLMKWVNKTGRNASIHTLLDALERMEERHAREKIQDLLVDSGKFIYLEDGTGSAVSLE

B1: IgG1 antibody comprising the VH and VL domains of the T1014F08 scFv (antibody, V domains shown)
VH: EVQLVQSGAEVKKPGASVKLSCRVSGDTFTAYFIHWVRQAPGQGPEWMGWFNPISGTAGSAARFRGRVAMTRDTSISTAYMELNRLTFDDTAVYYCARQHRGNTFDPWGKGTLVTVSS
VL: LPVLTQPPSASGSPGQSVTISCTGTSSDVGGYKYVSWYQQHPGKAPKLMIYEVSMRPSGVPDRFSGSKSGNTASLTVSGLQAEDEADYYCASYAGSNNWVFGGGTKLTVLG
B2: scFv T1014A04 (scFv)
scFv: EVQLVQSGADVKRPGASVKVSCKISGDSFNAYFIHWVRQAPGQGLEWMGWFNPDSGTADSAQKFHGRVTMTRDTSSSTAFLELSRLRSDDTAVYYCVRQHRGNTFAPWGRGTMVTVSSGGGGSGGGGSGGGGSAQSVLTQPPSASGSPGQSVTISCTGTTSDVGGYNYVSWYQQHPGKAPKLMIYGVNQRPSGVPDRFSGSKSGNTASLTVSGLQAEDEADYYCSSYAGSNNWVFGGGTKLTVLG
B3: scFv T1015A07 (scFv)
scFv: EVQLVQSGAEVKKPGASVKVSCKISGDSFTAYFIHWLRQAPGEGLEWMGWFNPISGTADSPQKFHGRVAMTRDTSISTAYMELTRLASDDTAIYYCARQHHSNTFDPWGQGTLVTVSSGGGGSGGGGSGGGGSAQSALTQPASMSGSPGQSITISCTGTSSDVGGYNYVSWYQQHPGKAPKLMIYAVTNRPSGVSNRFSASKSGNTASLTISGLQAEDEADYYCSSYTSSNTWVFGGGTKVTVLG
B4: scFv T1014G03 (scFv)
scFv: EVQLVQSGAEVKMPGASVKLSCRVSGDTFTAYFIHWVRQAPGQGLEWMGWFNPISGTAGSAEKFRGRVAMTRDTSISTAYMELNRLTFDDTAVYYCARQHRGNTFDPWGQGTLVTVSSGGGGSGGGGSGGGGSAQSALTQPASVSGSPGQSITISCTGTSSDIGAYKYVSWYQQHPGKAPKLVIYEVSNRPSGVSSRFSGSKSGQTASLTISGLQADDEADYYCNSYQGYNTWVFGGGTKVTVLG
B5: scFv T1014A02 (scFv)
scFv: QVQLQESGPGLVKPSETLSLTCTVSGGSISDYYWSWVRQSPGKGLEWIGSIDYAGSTNYNPSLKSRVTMTIDKSKKQFPLKIDSVTAADTAMYYCARQLGRISDYWGQGTLVTVSSGGGGSGGGGSGGGGSALSYVLTQPPSASGTPGQRVTISCAGSSSNIGGNTVNWYQQLPATAPKLLIYSNNQRPSGVPDRFSGSKSGTSASLAISGLQSEDEADYYCATWDDSRGGWVFGGGTKLTVLG
B6: scFv T1014A12 (scFv)
scFv: EVQLVQSGADVKRPGASVKVSCKISGDSFTAYFIHWVRQAPGQGLEWMGWFNPDSGTADSAQKFHGRVTMTRDTSSSTAFLELSRLRSDDTAVYYCVRQHRGNTFAPWGRGTMVTVSSGGGGSGGGGSGGGGSAQSALTQPASVSGPPGQSITISCTGSSSDVGGYKYVSWYQQHPGKAPKLIIHDVSRRPSEVSSRFSGSKSGNTASLTISGLQAEDEAEYYCSSYSSTNSWVFGGGTKVTVLG
B7: scFv T1014B01 (scFv)
scFv: QVQLVQSGAEVKKPGASVKVSCKISGDTFAAYFIHWVRQAPGQGLEWMGWFNPNSGTADSSQKFHGRVTMTRDTSISTAYMELSRLRSDDTAVYYCARQHRSNTFDPWGQGTMVTVSSGGGGSGGGGSGGGGSAQSVVTQPPSVSGSPGQSVTISCTGTSSDIGAYNYVSWFQQHPGKAPKLIISEVSKRPSGVPDRLSGSKSGNTASLTVSGLQAEDEADYYCGSYAGSNIWVFGGGTKVTVLG
B8: scFv T1014B11 (scFv)
scFv: EVQLVQSGAEVKKPGASVKVSCKISGDSFTAYFIHWLRQAPGEGLEWMGWFNPISGTAGSPQKFHGRVAMTRDTSISTAYMELTRLASDDTAIYYCARQHHSNTFDPWGQGTLVTVSSGGGGSGGGGSGGGGSAQSALTQPASVSGSPGQSITISCTGTNSDVGGYNYVSWYQQHPGKAPKLMIYEVNNRPSGVSNRFSGSKSGNTASLTISGLQADDEADYYCSSYTTSNTWVFGGGTKLTVLG
B9: scFv T1014F08 (scFv)
scFv: EVQLVQSGAEVKKPGASVKLSCRVSGDTFTAYFIHWVRQAPGQGPEWMGWFNPISGTAGSAARFRGRVAMTRDTSISTAYMELNRLTFDDTAVYYCARQHRGNTFDPWGKGTLVTVSSGGGGSGGGGSGGGGSALPVLTQPPSASGSPGQSVTISCTGTSSDVGGYKYVSWYQQHPGKAPKLMIYEVSMRPSGVPDRFSGSKSGNTASLTVSGLQAEDEADYYCASYAGSNNWVFGGGTKLTVLG
B10: scFv T1014G04 (scFv)
scFv: EVQLVQSGADVKRPGASVKVSCKISGDSFTAYFIHWVRQAPGQGLEWMGWFNPDSGTADSAQKFHGRVTMTRDTSSSTAFLELSRLRSDDTAVYYCVRQHRGNTFAPWGRGTLVTVSSGGGGSGGGGSGGGGSAQPVLTQPPSASGSPGQSVTISCTGTSSDVGSYEYVSWYQQHPGKAPRLMISEVNKRPSGVPNRFSGSKSGNTASLTVSGLQADDEADYYCSSYAGSNNWVFGGGTKVTVLG

Molecular target: TR4 polypeptide (human) (UniProt O00220)
Assay: statement in Example 8; assay not named

**Q.** For B1, which binding is on record?
**A.** binds

Molecular target: TR4 polypeptide (human) (UniProt O00220)
Assay: phage display selection of scFvs on TR4

**Q.** For B2, which binding is on record?
**A.** binds

**Q.** B3 was tested. Which binding did it give?
**A.** binds

**Q.** Which binding does the source give for B4 here?
**A.** binds

**Q.** How did the binding turn out when B5 was run?
**A.** binds

**Q.** For B6, which binding is on record?
**A.** binds

**Q.** With B7 as the binder, how does the binding read?
**A.** binds

**Q.** Which binding does the source give for B8 here?
**A.** binds

**Q.** B9 was tested. Which binding did it give?
**A.** binds

**Q.** For B10, which binding is on record?
**A.** binds
